Assay results taken from PubChem BioAssay AID2685 (National Center for Advancing Translational Sciences (NCATS), 2010).
Some of the results follow. Shown are side measurements of this screen, not its main read-out; they come without a call. Most of these compounds were active or inconclusive in the main read-out, so they are no random draw. The note in brackets gives the kind of curve behind each potency; many fits are weak.

Assay: qHTS Assay for Lipid Storage Modulators in Drosophila S3 Cells;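 on cell number change: cells counted by Cell Tracker Red CMTPX staining in the red channel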
Settings: BODIPY lipid droplet fluorescence, 18-24 h; for cell number change: measured here: cell count max response, cells fed with added oleic acid
Outline: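 Laser-scanning cytometry quantifies lipid droplet accumulation (500–530 nm total intensity; droplet/cell object ratio) in oleic acid-fed (400 uM added) Drosophila S3 cells treated with a concentration series. 20 uM Triacsin C defined 100% inhibition.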

[1] = measured here: lipid fluorescence (Fed channel) AC50, cells fed with added oleic acid
[2] = measured here: cell number channel AC50, cells fed with added oleic acid

For Cc1cc([N+](=O)[O-])ccc1NC(=O)CCC(=O)N1CCCC1, the cell number change was -3.47% and the AC50 [1] was 29.1 µM [rising, single point].

Work on O=C(NNC1=C(C(=O)C(F)(F)F)CCC1)c1ccc(Cl)cc1 yielded a cell number change of -0.0707%.

With O=C(c1cc(-c2ccccc2)nc2ccccc12)N1CCCc2ccccc21 the cell number change was 1.55% and the AC50 [1] was 29.1 µM [rising, single point].

In the case of CCOC(=O)C1(C(=O)OCC)CC1c1ccccc1 (configuration not stated), the cell number change is reported as -26%, the AC50 [2] is reported as 0.82 µM [falling, full curve, poor fit] and the AC50 [1] is reported as 5.17 µM [falling, partial curve].

In the case of NCCS, the cell number change is reported as -25.8% and the AC50 [2] is reported as 3.26 µM [falling, full curve, poor fit].

With COc1cc([C@@H]2c3cc4c(cc3[C@@H](O)[C@@H](CO)[C@@H]2CO)OCO4)cc(OC)c1O[Si](C)(C)C(C)(C)C the cell number change was -76%, the AC50 [2] was 18.4 µM [falling, partial curve] and the AC50 [1] was 20.6 µM [falling, partial curve].

With CC(C)CC(COCc1ccc(Cl)cc1)N1CCN(C(=O)c2ccc(C(F)(F)F)cc2)CCC1=O (configuration not stated) the cell number change was -39%, the AC50 [2] was 0.92 µM [falling, full curve, poor fit] and the AC50 [1] was 0.82 µM [falling, full curve, poor fit].

In the case of COc1ccc(C(CCNCc2ccc(OC)c(OC)c2)c2ccc(F)cc2)cc1 (configuration not stated), the cell number change is reported as -23.3% and the AC50 [1] is reported as 32.6 µM [falling, single point].

With C=CCn1c2ccccc2c2nnc(SCCN3CCCCC3)nc21 the cell number change was -1.17% and the AC50 [1] was 2.91 µM [falling, partial curve].

In the case of COc1ccc(-c2c(C)n([O-])c3c([n+]2=O)CCCC3)c(OC)c1, the cell number change is reported as -15.4%, the AC50 [2] is reported as 0.82 µM [falling, full curve, poor fit] and the AC50 [1] is reported as 3.66 µM [falling, full curve].

In the case of COCCOC(=O)C1=C(C)NC(C)=C(C(=O)OC(C)C)C1c1cccc([N+](=O)[O-])c1 (configuration not stated), the cell number change is reported as 0.492% and the AC50 [1] is reported as 1.64 µM [rising, partial curve, poor fit].

For Cc1cc(N2CCN(C)CC2)ccc1NC(=O)c1cccc(S(=O)(=O)N2CCc3ccccc3C2)c1, the cell number change was -55.8%.

For CCCCNC(=O)CCn1c(=O)c2ccccc2n(Cc2ccc(F)cc2)c1=O, the cell number change was 9.32% and the AC50 [1] was 14.6 µM [rising, single point].

With NC(=S)Nc1ccc(S(=O)(=O)c2ccc(NC(N)=S)cc2)cc1 the cell number change was -0.503% and the AC50 [1] was 0.731 µM [falling, full curve].

With O=C(Nc1cccc(Cl)c1N1CCOCC1)c1cccnc1 the cell number change was -2.78%.

Cc1ccc(-n2c(SCC(=O)NCc3ccco3)nc3sc4c(c3c2=O)CC(C)(C)SC4)cc1 gave a cell number change of -2.3%.

In the case of COc1ccc(-c2csc(C3=C(O)CN(CCCN4CCCC4=O)C3=N)n2)cc1OC, the cell number change is reported as -63.2%, the AC50 [2] is reported as 2.31 µM [falling, partial curve, poor fit] and the AC50 [1] is reported as 8.2 µM [falling, partial curve].

In the case of COc1cccc(NC(=O)C2CCCO2)c1 (configuration not stated), the cell number change is reported as -4.4% and the AC50 [1] is reported as 2.06 µM [rising, partial curve].

With O=C(COc1cccc2c1CCN(Cc1ccccc1F)C2=O)N1CCOCC1 the cell number change was 28.4%, the AC50 [2] was 0.517 µM [rising, full curve, poor fit] and the AC50 [1] was 0.082 µM [rising, full curve, poor fit].

With Cn1c(SCC(=O)N2CCCCCC2)nc2c(c1=O)SCC2 the cell number change was 11.6% and the AC50 [1] was 7.31 µM [rising, partial curve, poor fit].

Molecule Cn1cc(/C=C(\NC(=O)c2ccccc2Cl)C(=O)N2CCOCC2)c2ccccc21 has a cell number change of -9.79%.

In the case of COC(=O)c1sc(NC(=S)NC(=O)c2ccccc2C)nc1C, the cell number change is reported as 27.4% and the AC50 [1] is reported as 1.46 µM [rising, partial curve, poor fit].

For COc1ccc(-n2cnnc2SCc2cnc(-c3ccccc3)s2)cc1, the cell number change was -8.02% and the AC50 [1] was 1.64 µM [rising, full curve, poor fit].

For COC(=O)c1cn(CC(=O)NCc2ccco2)c2ccccc12, the AC50 [1] was 0.58 µM [falling, single point].

With COc1ccc(C(=O)NCCS(=O)(=O)N2CCOCC2)cc1 the cell number change was -32.5% and the AC50 [2] was 32.6 µM [falling, single point].

In the case of O=C(Nc1cc(S(=O)(=O)N2CCCC2)ccc1Cl)C1=COCCO1, the cell number change is reported as 25% and the AC50 [1] is reported as 1.03 µM [rising, full curve].

In the case of COC(=O)c1sc(SC)c(S(=O)(=O)C(C)C)c1N/N=C(\C#N)S(=O)(=O)c1ccccn1, the cell number change is reported as 24.8% and the AC50 [1] is reported as 8.2 µM [rising, partial curve, poor fit].

In the case of COc1ccccc1N(CC(=O)NCCSCc1cccc(C)c1)S(=O)(=O)c1ccccc1, the cell number change is reported as -13.5% and the AC50 [1] is reported as 0.0291 µM [falling, full curve].

With Cc1ccc(SCC(=O)OC(C)C(=O)Nc2ccc(S(N)(=O)=O)cc2)cc1C (configuration not stated) the cell number change was 25%, the AC50 [2] was 0.00517 µM [rising, full curve] and the AC50 [1] was 0.103 µM [falling, full curve, poor fit].

CO/N=C/c1ccc(N2CCOCC2)c([N+](=O)[O-])c1 gave a cell number change of 10.8%.

With Cc1cc(C)c2c(N=NN3CCOCC3)[nH]nc2n1 the cell number change was 64.7% and the AC50 [2] was 29.1 µM [rising, single point].

With O=C(O)c1cc(Br)ccc1NN=C1CCCCC1 the cell number change was -15.7% and the AC50 [1] was 0.0082 µM [rising, full curve, poor fit].

In the case of O=C(OCc1cc2ccccc2[nH]c1=O)c1cccnc1, the cell number change is reported as 8.69% and the AC50 [1] is reported as 0.461 µM [rising, full curve, poor fit].

For CCN1CCN(C(=O)N(c2ccccc2)c2ccccc2)CC1, the cell number change was 17.2% and the AC50 [1] was 29.1 µM [falling, single point].

With CCN(CC(=O)NCc1cccs1)C(=O)c1cccc(S(=O)(=O)Nc2ccc(C)cc2)c1 the AC50 [2] was 1.64 µM [rising, partial curve].

With NC(=O)c1cc(N2C(=O)C=CC2=O)ccc1Cl the cell number change was -83.9%, the AC50 [2] was 29.1 µM [falling, single point] and the AC50 [1] was 29.1 µM [falling, single point].

In the case of CS(=O)(=O)c1ccccc1C(=O)Nc1ccc(-c2nc3ccccc3[nH]2)cc1, the cell number change is reported as -25.1% and the AC50 [1] is reported as 0.259 µM [falling, full curve].

O=C(Cc1cccs1)NCCc1ccc(F)cc1 showed a cell number change of 10.8%.

In the case of CCCOC(=O)N[C@@H]1C(=O)N2C(C(=O)OCCC)=C(C)CS[C@H]12, the cell number change is reported as 2.1% and the AC50 [1] is reported as 14.6 µM [rising, partial curve, poor fit].

In the case of CCOC(=O)c1cccc(NC(=O)CSc2nnc(-c3cccnc3)n2C)c1, the AC50 [2] is reported as 6.51 µM [falling, single point] and the AC50 [1] is reported as 0.651 µM [falling, partial curve, poor fit].

For CC(=O)c1ccc(N2CCN(c3ncc(C(F)(F)F)cc3Cl)CC2)cc1, the cell number change was 24.7% and the AC50 [1] was 29.1 µM [rising, single point].

In the case of CCCCc1nc2cc(C(=O)N3CCC(OCCOC)CC3)ccc2o1, the cell number change is reported as 13.3% and the AC50 [1] is reported as 0.231 µM [rising, full curve, poor fit].

In the case of Cc1cc(NC(=O)c2cccs2)cc(-c2nc3ncccc3o2)c1O, the cell number change is reported as -13.5% and the AC50 [1] is reported as 2.06 µM [rising, partial curve].

With CC1(C)CC(=O)c2sc(NS(=O)(=O)c3ccc([N+](=O)[O-])cc3)nc2C1 the cell number change was 32.7%, the AC50 [2] was 32.6 µM [rising, single point] and the AC50 [1] was 6.51 µM [rising, single point].

For CC(C)n1c(N2CCN(C(=O)Nc3ccc(F)cc3F)CC2)nc2ccccc21, the cell number change was -40.7% and the AC50 [2] was 11.6 µM [falling, single point].

With Cc1cccc(Sc2c([N+](=O)[O-])ncn2C)n1 the cell number change was -23.8% and the AC50 [2] was 3.26 µM [rising, partial curve].

With CC(C)(C)c1ccc(OCC(=O)N2CCN(C=O)CC2)cc1 the cell number change was -21.2%, the AC50 [2] was 3.26 µM [falling, full curve, poor fit] and the AC50 [1] was 3.66 µM [falling, full curve].

For Cc1ccc(-c2c[n+](Cc3ccc(Cl)c(Cl)c3)c3n2CCC3)cc1, the cell number change was -3.97% and the AC50 [1] was 29.1 µM [falling, single point].

In the case of O=C(CSc1ccccc1)Nc1ccc2c(c1)C(=O)NC2=O, the cell number change is reported as 21.7% and the AC50 [1] is reported as 18.4 µM [rising, partial curve].

For O=C(Nc1nc2ccccc2[nH]1)NC1CCCCC1, the cell number change was 7.43% and the AC50 [1] was 29.1 µM [falling, single point].

With O=C(c1ccc(Cl)c([N+](=O)[O-])c1)N(c1ccccn1)c1ccccn1 the cell number change was 50% and the AC50 [2] was 2.91 µM [rising, full curve, poor fit].

For O=c1oc2cc(O)ccc2c2ccccc12, the cell number change was 40.5% and the AC50 [2] was 23.1 µM [rising, single point].

With COc1ccc(C(=O)Nc2cccc(S(C)(=O)=O)c2)cc1OC the cell number change was 2.55%.

For CC(=O)c1cc2cc(O)ccc2o1, the cell number change was -36.6%, the AC50 [2] was 29.1 µM [falling, single point] and the AC50 [1] was 32.6 µM [falling, single point].

For COc1cc(/C=N/NC(=O)Cn2nnc3ccccc32)ccc1O, the AC50 [2] was 3.26 µM [falling, single point].

For CC1(c2ccc3c(c2)OCCCO3)NC(=O)N(CC(=O)NCCc2ccccc2)C1=O (configuration not stated), the cell number change was 5.17%.

In the case of C=CCC1=C/C(=C\c2c(N)n3nc(CC(=O)N4CCOCC4)sc3nc2=O)C=C(OC)C1=O, the cell number change is reported as -20.9% and the AC50 [1] is reported as 2.91 µM [falling, partial curve].

In the case of CN(C)c1ccc(N2C(=NC(=O)COc3ccccc3)SC3CS(=O)(=O)CC32)cc1 (configuration not stated), the cell number change is reported as -30.7%, the AC50 [2] is reported as 6.51 µM [falling, full curve, poor fit] and the AC50 [1] is reported as 1.64 µM [falling, partial curve].

NC(=O)CN1CCN(S(=O)(=O)c2ccc(Br)cc2)CC1 showed a cell number change of 8.23%.
